Laboratory results reported in PMC10164908.
These are yes or no findings as the source states them, for the method shown. Binding seen in cells or lysates may run through a third protein. Some binding calls cover weakened binding; strength is not graded here.

By UniProt entry, the sequences of proteins in these tests, tags left out.
UniProt P60953: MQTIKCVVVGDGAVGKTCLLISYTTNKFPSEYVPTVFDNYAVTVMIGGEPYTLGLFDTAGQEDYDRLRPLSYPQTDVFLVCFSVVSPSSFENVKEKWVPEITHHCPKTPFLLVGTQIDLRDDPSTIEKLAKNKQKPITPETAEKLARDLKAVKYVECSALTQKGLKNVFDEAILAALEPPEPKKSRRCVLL
UniProt Q91YD9: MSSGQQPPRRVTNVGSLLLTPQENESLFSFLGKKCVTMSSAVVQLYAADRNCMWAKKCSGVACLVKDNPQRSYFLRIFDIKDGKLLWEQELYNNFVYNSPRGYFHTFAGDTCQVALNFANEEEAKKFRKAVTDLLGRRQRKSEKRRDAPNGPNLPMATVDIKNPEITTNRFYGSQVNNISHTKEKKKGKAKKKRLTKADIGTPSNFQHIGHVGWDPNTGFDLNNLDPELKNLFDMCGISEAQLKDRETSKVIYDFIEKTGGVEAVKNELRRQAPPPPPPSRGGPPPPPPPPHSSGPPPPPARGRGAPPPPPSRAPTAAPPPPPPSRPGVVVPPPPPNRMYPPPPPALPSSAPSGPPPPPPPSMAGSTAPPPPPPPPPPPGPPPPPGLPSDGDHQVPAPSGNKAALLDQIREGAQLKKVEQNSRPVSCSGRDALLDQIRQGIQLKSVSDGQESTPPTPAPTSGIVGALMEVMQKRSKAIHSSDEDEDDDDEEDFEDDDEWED

Molecular target: Emerald GFP-Cdc42 (UniProt P60953)
Test: co-IP; GFP-Cdc42 expressed in WT MEFs for 48 h and isolated with GFP-Trap agarose (Chromotek); bound endogenous N-WASP detected by immunoblot; cells uninfected or infected for 30 min with WT or ΔsopE2 S. Tm

- binding: binds
Substance: N-WASP (from UniProt Q91YD9 1-501)
